Reference: the supplement of paper PMC11150407
In all, about 2,100 compounds went through this assay and about 180 (8.6%) showed an effect of 50% or more. The list shows a part of the results.

System: MOLM1 and UCSD/AML1 (averaged)
Assay: cell viability relative to DMSO control (POC); higher = less growth inhibition
Settings: 1 µM; 72 h
Procedure: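 Primary viability screen in the 3q26 EVI1-high AML cell lines MOLM1 and UCSD/AML1 (1.5e3 cells/well, 384-well), compounds at 1 uM for 72 h. ATP CellTiter-Glo read-out given as percent of viable cells over DMSO control (POC), averaged over duplicates. DMSO was the negative control and 5 uM etoposide the positive control. This mapping covers the MicroSource Spectrum and Selleck anticancer libraries (drug names).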

| SMILES | cell viability |
| --- | --- |
| CC(C(=O)O)c1cccc(C(=O)c2ccccc2)c1 (stereo not drawn) | 103% |
| C#C[C@]1(O)CC[C@H]2[C@@H]3CCc4cc(O)ccc4[C@H]3CC[C@@]21C | 99.5% |
| Cc1occc(=O)c1O | 103% |
| CC(C)=CC1C(CO)C1(C)C (stereo not drawn) | 104% |
| CC1(C)CC23C(=O)CCC(O)C2(C)CCC13 (stereo not drawn) | 96.7% |
| CO[C@H]1O[C@H](CO)C(O[C@@H]2OC(C(=O)O)[C@@H](O[C@H]3O[C@H](COS(=O)(=O)O)C(O[C@@H]4OC(C(=O)O)[C@@H](O[C@H]5O[C@H](CO)C(O[C@@H]6OC(C(=O)O)[C@@H](O[C@H]7O[C@H](COS(=O)(=O)O)C(O[C@@H]8OC(C(=O)O)=C[C@H](O)C8OS(=O)(=O)O)[C@H](O)[C@H]7NC(C)=O)[C@H](O)[C@H]6O)[C@H](O)[C@H]5NC(C)=O)[C@H](O)[C@H]4O)[C@H](O)[C@H]3NC(C)=O)[C@H](O)[C@H]2O)[C@H](O)[C@H]1NC(C)=O (stereo partly drawn) | 86.8% |
| CCOc1cc(CC(=O)N[C@@H](CC(C)C)c2ccccc2N2CCCCC2)ccc1C(=O)O | 102% |
| O=C(O)C(Cc1c[nH]c2ccccc12)N1C(=O)c2ccccc2C1=O (stereo not drawn) | 73.8% |
| COc1cc2c(cc1OC)C1(O)C(=O)c3ccc(O)c(C(=O)O)c3OC1CO2 (stereo not drawn) | 101% |
| CCC(C(N)=O)c1ccccc1 (stereo not drawn) | 109% |
| COc1c(N2C[C@@H]3CCCN[C@@H]3C2)c(F)cc2c(=O)c(C(=O)O)cn(C3CC3)c12 | 92.8% |
| COc1ccc(C(=O)c2ccccc2)c(O)c1 | 90.2% |
| CC1(C)C(=O)C=CC2(C)C1C=CC1(C)C2CCC2(C)C(c3ccoc3)OC(=O)C3OC312 (stereo not drawn) | 86.9% |
| COc1ncnc(NS(=O)(=O)c2ccc(N)cc2)c1OC | 96.1% |
| CC(=O)OCC(=O)[C@@]1(O)[C@H](C)C[C@H]2[C@@H]3CCC4=CC(=O)C=C[C@]4(C)[C@@]3(F)[C@@H](O)C[C@@]21C [Dexamethasone acetate] | 63.4% |
| CC(=O)OCC(=O)[C@@]1(O)[C@H](C)C[C@H]2[C@@H]3CCC4=CC(=O)C=C[C@]4(C)[C@@]3(F)[C@@H](O)C[C@@]21C | 65.8% |
| COc1ccc(C(=O)CC(=O)c2ccc(C(C)(C)C)cc2)cc1 | 87.3% |
| NCCSSCCN | 113% |
| CC(C)NCC(O)c1ccc(O)c(O)c1 (stereo not drawn) | 119% |
| CS(=O)(=O)N1CCN(Cc2cc3nc(-c4cccc5[nH]ncc45)nc(N4CCOCC4)c3s2)CC1 [Pictilisib (GDC-0941)] | 51.1% |
| CNS(=O)(=O)c1ccc(NC(=O)c2ccccc2C(=O)O)cc1 | 110% |
| O=C(CCCCCCC(=O)Nc1ccccc1)NO [Vorinostat (SAHA)] | 22% |
| CC[C@H]1OC(=O)C[C@@H](O)[C@H](C)[C@@H](O[C@@H]2O[C@H](C)[C@@H](O[C@H]3C[C@@](C)(O)[C@@H](O)[C@H](C)O3)[C@H](N(C)C)[C@H]2O)[C@@H](CC=O)C[C@@H](C)C(=O)/C=C/C(C)=C/[C@@H]1CO[C@@H]1O[C@H](C)[C@@H](O)[C@@H](OC)[C@H]1OC | 96.4% |
| COc1ccc(S(=O)(=O)Nc2cccnc2Nc2ccc(O)cc2)cc1 | 49.4% |
| CC1(C)O[C@@H]2C[C@H]3[C@@H]4CCC5=CC(=O)C=C[C@]5(C)[C@H]4[C@@H](O)C[C@]3(C)[C@]2(C(=O)CO)O1 | 65.4% |
| O=C(O)c1ccc2c(c1)nc(Nc1cccc(Cl)c1)c1ccncc12 [cx-4945 (Silmitasertib)] | 80.5% |

| SMILES | cell viability |
| --- | --- |
| O=C(O)Cc1cc(I)c(Oc2cc(I)c(O)c(I)c2)c(I)c1 | 97.8% |
| CCN(CC)CCOc1ccc2c(c1)C(=O)c1cc(OCCN(CC)CC)ccc1-2 | 88.6% |
| C=C[C@@]1(C)CC(=O)[C@]2(O)[C@@]3(C)[C@@H](O)CCC(C)(C)[C@@H]3[C@H](O)[C@H](OC(C)=O)[C@@]2(C)O1 | 98.2% |
| CN(Cc1cnc2nc(N)nc(N)c2n1)c1ccc(C(=O)NC(CCC(=O)O)C(=O)O)cc1 (racemic) | 94.3% |
| CCN(CC)C(=S)SSC(=S)N(CC)CC [Disulfiram (Antabuse)] | 1.33% |
| CCN(CC)C(=S)SSC(=S)N(CC)CC | 5.82% |
| COc1cc2/c(=N/c3ccc(Br)cc3F)nc[nH]c2cc1OCC1CCN(C)CC1 [Vandetanib (Zactima)] | 51% |
| O=c1cc(-c2ccccc2)oc2cc(O)cc(O)c12 | 83.4% |
| Cc1c(C(=O)O)c(O)cc2c1C(=O)c1c(O)c([C@@H]3O[C@H](CO)[C@@H](O)[C@H](O)[C@H]3O)c(O)c(O)c1C2=O | 92.5% |
| O=C1CN(/N=C/c2ccc([N+](=O)[O-])o2)C(=O)N1 | 97.4% |
| c1ccc2c(c1)CN1CCCC1=N2 | 85.3% |
| Cc1ccccc1OCC(O)CO (stereo not drawn) | 97.9% |
| C[C@H](N)[C@H](O)c1cccc(O)c1 | 107% |
| CC1(C)S[C@@H]2[C@H](NC(=O)C(C(=O)O)c3ccccc3)C(=O)N2[C@H]1C(=O)O (stereo partly drawn) | 116% |
| CCN(CC)CCOC(=O)C(Cc1cccc2ccccc12)CC1CCCO1 (stereo not drawn) | 103% |
| C=C[C@@H](C1=CC(=O)C(OC)=C(OC)C1=O)c1ccccc1 | 8.05% |
| O=C1CN(/N=C/c2ccc(-c3ccc([N+](=O)[O-])cc3)o2)C(=O)N1 | 102% |
| COc1cc(O)c2c(c1)C(=O)c1cc(C)cc(O)c1C2=O | 94.9% |
| CCOC(=O)n1ccn(C)c1=S | 109% |
| CC1(C)S[C@@H]2[C@H](NC(=O)[C@H](C(=O)O)c3ccsc3)C(=O)N2[C@H]1C(=O)O | 112% |
| CN[C@@H]1[C@@H](O)[C@@H](O[C@@H]2[C@@H](O)[C@H](O[C@H]3OC(CN)=CC[C@H]3N)[C@@H](N)C[C@H]2N)OC[C@]1(C)O | 105% |
| Cc1cc(NS(=O)(=O)c2ccc(N)cc2)no1 | 101% |
| NCCCC(O)(P(=O)(O)O)P(=O)(O)O | 90.4% |
| CNC[C@H](O)[C@@H](O)[C@H](O)[C@H](O)CO | 103% |
| Nc1ccc(S(=O)(=O)Nc2cnc3ccccc3n2)cc1 | 97.1% |
| COC(=O)Nc1ccc(-c2nc(N3CCOCC3)c3cnn(C4CCN(C(=O)OC)CC4)c3n2)cc1 | 25.9% |

Exported tab-delimited: part of the list above.
SMILES	cell viability
CCN(CC)C(=S)SSC(=S)N(CC)CC [Disulfiram (Antabuse)]	1.33%
CCN(CC)C(=S)SSC(=S)N(CC)CC	5.82%
COc1cc2/c(=N/c3ccc(Br)cc3F)nc[nH]c2cc1OCC1CCN(C)CC1 [Vandetanib (Zactima)]	51%
O=c1cc(-c2ccccc2)oc2cc(O)cc(O)c12	83.4%

(further entries)

| SMILES | cell viability |
| --- | --- |
| CCCCC/C=C/CCC(=O)N[C@H]1[C@H](Oc2c3cc4cc2Oc2ccc(cc2Cl)[C@@H](O[C@@H]2O[C@H](CO)[C@@H](O)[C@H](O)[C@H]2NC(C)=O)[C@@H]2NC(=O)[C@H](NC(=O)[C@@H]4NC(=O)[C@H]4NC(=O)C(Cc5ccc(c(Cl)c5)O3)NC(=O)[C@H](N)c3ccc(O)c(c3)Oc3cc(O)cc4c3)c3ccc(O)c(c3)-c3c(OC4O[C@H](CO)[C@@H](O)[C@H](O)[C@@H]4O)cc(O)cc3[C@@H](C(=O)O)NC2=O)O[C@H](CO)[C@@H](O)[C@@H]1O (stereo partly drawn) [TEICOPLANIN [A(2-1) shown]] | 101% |
| O=c1c(O)c(-c2ccccc2)oc2cccc(O)c12 | 93.1% |
| Cc1ccnc(NS(=O)(=O)c2ccc(N)cc2)n1 | 98.5% |
| NC(=O)OCC(COC(N)=O)c1ccccc1 | 89.9% |
| CC(C)n1c(/C=C/C(O)CC(O)CC(=O)O)c(-c2ccc(F)cc2)c2ccccc21 (stereo not drawn) [Fluvastatin sodium (Lescol)] | 64.2% |
| CCCCNc1cc(C(=O)O)cc(S(N)(=O)=O)c1Oc1ccccc1 | 100% |
| CC(=O)Oc1ccccc1C(=O)Oc1ccccc1C(=O)O | 114% |
| CCN(CC)CCOC(=O)c1ccc(N)cc1 | 99.1% |
| CC[C@H](C)C(=O)O[C@H]1C[C@@H](C)C=C2C=C[C@H](C)[C@H](CC[C@@H]3C[C@@H](O)CC(=O)O3)[C@H]21 | 86.5% |
| CC(=O)N[C@@H](CS)C(=O)O | 99.9% |
| C[C@]1(c2nc3c(C(N)=O)cccc3[nH]2)CCCN1 [ABT-888 (Veliparib)] | 101% |
| CC(=O)O[C@H]1C[C@@]2(C)[C@@H](C[C@@H](O)[C@H]3[C@@]4(C)CC[C@@H](O)[C@@H](C)[C@@H]4CC[C@@]32C)/C1=C(\CCC=C(C)C)C(=O)O | 97.4% |
| O=C(O)Cc1cccc(OCCCN(Cc2cccc(C(F)(F)F)c2Cl)CC(c2ccccc2)c2ccccc2)c1 | 91.2% |
| O=c1cc(-c2ccccc2)oc2cc(O)c(O)c(O)c12 | 86% |
| CC(C)CCCC(C)N (stereo not drawn) | 95.1% |
| COc1cc(C2Oc3cc([C@H]4Oc5cc(O)cc(O)c5C(=O)[C@@H]4O)ccc3OC2CO)ccc1O (stereo partly drawn) | 92.4% |
| CCCCCC(=O)O[C@]1(C(C)=O)CC[C@H]2[C@@H]3CCC4=CC(=O)CC[C@]4(C)[C@H]3CC[C@@]21C | 102% |
| O=C(O[C@@H]1Cc2c(O)cc(O)cc2O[C@@H]1c1ccc(O)c(O)c1)c1cc(O)c(O)c(O)c1 | 96.5% |
| OC(c1cc(C(F)(F)F)nc2c(C(F)(F)F)cccc12)C1CCCCN1 (stereo not drawn) | 98.3% |
| CNCCCC12CCC(c3ccccc31)c1ccccc12 | 103% |
| CC[C@H]1OC(=O)C[C@@H](O)[C@H](C)[C@@H](O[C@@H]2O[C@H](C)[C@@H](O)[C@H](N(C)C)[C@H]2O)[C@@H](CCN2C[C@H](C)C[C@H](C)C2)C[C@@H](C)C(=O)/C=C/C(C)=C/[C@@H]1CO[C@@H]1O[C@H](C)[C@@H](O)[C@@H](OC)[C@H]1OC | 91% |
| CC1(C)O[C@@H]2C[C@H]3[C@@H]4CCC5=CC(=O)CC[C@]5(C)[C@@]4(F)[C@@H](O)C[C@]3(C)[C@]2(C(=O)CCl)O1 | 69.8% |
| C[C@]12C=CC(=O)C=C1CC[C@H]1[C@@H]3C[C@@H](O)[C@](O)(C(=O)CO)[C@@]3(C)C[C@H](O)[C@@]12F | 75.7% |
| C[C@@H]1O[C@@H](OC[C@H]2O[C@@H](Oc3c(-c4ccc(OCCO)c(OCCO)c4)oc4cc(OCCO)cc(O)c4c3=O)[C@H](O)[C@@H](O)[C@@H]2O)[C@H](O)[C@H](O)[C@H]1O | 116% |
| Cc1cc(C)cc(OCC2CNC(=O)O2)c1 (stereo not drawn) | 91.3% |
| CC(=O)O[C@H]1C[C@@H]2CC[C@@H]3[C@H](CC[C@@]4(C)[C@H]3C[C@H]([N+]3(C)CCCCC3)[C@@H]4OC(C)=O)[C@@]2(C)C[C@@H]1N1CCCCC1 | 94.6% |

2 entries from above, as labelled records.
Cc1ccnc(NS(=O)(=O)c2ccc(N)cc2)n1
  cell viability: 98.5%
OC(c1cc(C(F)(F)F)nc2c(C(F)(F)F)cccc12)C1CCCCN1 (stereo not drawn)
  cell viability: 98.3%
